{"sequences": {"note": "The chains behind the UniProt entries cited, without tags or fusion partners. Where a name states a change or a piece, a line headed by the entry shows the natural chain unless it says otherwise.", "UniProt Q9P7H6": "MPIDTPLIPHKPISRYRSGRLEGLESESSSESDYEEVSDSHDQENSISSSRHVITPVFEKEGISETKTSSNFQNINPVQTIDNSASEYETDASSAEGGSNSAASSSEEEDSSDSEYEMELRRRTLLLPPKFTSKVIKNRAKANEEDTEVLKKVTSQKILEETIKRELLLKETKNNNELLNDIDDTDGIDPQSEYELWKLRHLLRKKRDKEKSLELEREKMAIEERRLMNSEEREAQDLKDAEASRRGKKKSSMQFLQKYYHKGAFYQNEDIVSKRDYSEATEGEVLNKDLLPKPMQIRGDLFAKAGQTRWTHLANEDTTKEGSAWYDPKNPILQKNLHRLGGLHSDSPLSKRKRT", "UniProt O14097": "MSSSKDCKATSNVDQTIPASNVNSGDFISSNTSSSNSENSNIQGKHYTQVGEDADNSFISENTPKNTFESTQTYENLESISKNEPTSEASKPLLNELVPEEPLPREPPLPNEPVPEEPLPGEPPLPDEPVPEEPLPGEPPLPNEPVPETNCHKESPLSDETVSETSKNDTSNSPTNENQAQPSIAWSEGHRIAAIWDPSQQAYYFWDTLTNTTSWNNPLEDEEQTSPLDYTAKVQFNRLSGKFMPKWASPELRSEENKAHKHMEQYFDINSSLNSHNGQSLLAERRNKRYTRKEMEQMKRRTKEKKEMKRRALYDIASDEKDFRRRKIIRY"}, "source": "paper PMC3046128", "about": "“Systematic Two-Hybrid and Comparative Proteomic Analyses Reveal Novel Yeast Pre-mRNA Splicing Factors Connected to Prp19” (PLoS ONE, 2011)", "key": {"[1]": {"target": "T1, SpDre4, epitope-tagged (S. pombe) (UniProt Q09685)", "T1 sequence": "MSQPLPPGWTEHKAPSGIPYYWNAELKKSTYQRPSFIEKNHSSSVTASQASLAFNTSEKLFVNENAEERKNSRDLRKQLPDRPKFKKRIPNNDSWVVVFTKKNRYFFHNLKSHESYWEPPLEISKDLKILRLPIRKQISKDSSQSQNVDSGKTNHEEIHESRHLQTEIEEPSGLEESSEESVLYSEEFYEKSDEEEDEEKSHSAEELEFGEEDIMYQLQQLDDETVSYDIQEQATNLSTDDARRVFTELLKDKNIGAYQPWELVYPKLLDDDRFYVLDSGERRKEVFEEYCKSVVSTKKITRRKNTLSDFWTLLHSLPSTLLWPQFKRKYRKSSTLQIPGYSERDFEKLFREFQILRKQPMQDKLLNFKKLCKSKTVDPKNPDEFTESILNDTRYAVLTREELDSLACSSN", "test": "co-IP; S. pombe lysates of epitope-tagged strains (NP-40 lysis buffer); anti-Myc, anti-GFP, anti-FLAG or IgG (TAP) immunoprecipitates, immunoblot"}, "S. pombe Prp19-Myc13": {"target": "T2, S. pombe Prp19-Myc13 (S. pombe, UniProt O14011 1-488)", "T2 construct": "Prp19 (Cwf8), S. pombe, open reading frame tagged at the 3' end of the endogenous locus; also called SpPrp19; Cwf8; source: S. pombe, tagged at the endogenous locus, in lysate; not shown: Myc13, C-terminal, kept", "T2 sequence (looked up)": "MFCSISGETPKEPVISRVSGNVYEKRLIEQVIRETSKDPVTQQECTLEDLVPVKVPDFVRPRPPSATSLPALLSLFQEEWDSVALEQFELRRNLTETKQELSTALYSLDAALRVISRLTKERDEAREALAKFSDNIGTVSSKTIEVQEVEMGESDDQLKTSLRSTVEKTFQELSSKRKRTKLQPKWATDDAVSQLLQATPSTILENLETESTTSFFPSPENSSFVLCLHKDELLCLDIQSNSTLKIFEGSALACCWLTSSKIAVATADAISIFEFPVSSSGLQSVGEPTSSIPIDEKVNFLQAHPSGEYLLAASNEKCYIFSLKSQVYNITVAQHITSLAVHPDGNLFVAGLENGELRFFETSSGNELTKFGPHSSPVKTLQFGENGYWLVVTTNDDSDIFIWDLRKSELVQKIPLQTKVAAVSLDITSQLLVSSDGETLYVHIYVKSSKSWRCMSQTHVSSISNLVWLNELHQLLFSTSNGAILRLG", "test": "co-IP; S. pombe lysates of epitope-tagged strains (NP-40 lysis buffer); anti-Myc, anti-GFP, anti-FLAG or IgG (TAP) immunoprecipitates, immunoblot"}, "[2]": {"target": "T3, SpSaf1 (two-hybrid bait) (S. pombe) (UniProt O74517)", "T3 sequence": "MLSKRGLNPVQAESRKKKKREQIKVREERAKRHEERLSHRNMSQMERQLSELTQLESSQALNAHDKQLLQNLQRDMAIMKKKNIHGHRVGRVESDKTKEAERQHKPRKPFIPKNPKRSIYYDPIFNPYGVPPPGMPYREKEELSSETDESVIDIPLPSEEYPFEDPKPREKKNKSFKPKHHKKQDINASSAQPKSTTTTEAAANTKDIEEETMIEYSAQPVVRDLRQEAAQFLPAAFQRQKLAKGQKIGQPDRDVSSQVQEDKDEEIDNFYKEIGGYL", "test": "two-hybrid; directed two-hybrid in S. cerevisiae strain PJ69-4A with pGBT9 and pGAD vectors; growth on selective media and ß-galactosidase activity"}}, "note": "Results are given in words; binding and its absence hold for the method and conditions named. Binding can be weak; no strength is given. For some assays here: Binding seen in cells or lysates may run through a third protein. For some assays here: Tags and fused reporters may be left off the sequences shown.", "data": [{"substance": "SpSaf3, epitope-tagged at the endogenous locus (from UniProt Q9P7H6)", "values": [{"measurement": "binding", "setting": "[1]", "value": "binds"}, {"measurement": "binding", "setting": "S. pombe Prp19-Myc13", "value": "binds"}]}, {"substance": "SpDre4 WW domain region (two-hybrid prey) (S. pombe) (domain or fragment)", "values": [{"measurement": "binding", "setting": "[2]", "value": "binds"}]}, {"substance": "SpSaf2, epitope-tagged at the endogenous locus (from UniProt O14097)", "values": [{"measurement": "binding", "setting": "[1]", "value": "binds"}, {"measurement": "binding", "setting": "S. pombe Prp19-Myc13", "value": "binds"}]}]}
